Results published in the supplement of paper PMC12067093, “Discovery and optimisation of a covalent ligand for TRIM25 and its application to targeted protein ubiquitination” (Chemical Science, 2025).
The list shows a part of the results.

The chains behind the UniProt entries cited, without tags or fusion partners. Where a name states a change or a piece, a line headed by the entry shows the natural chain unless it says otherwise.
UniProt Q9NVG8: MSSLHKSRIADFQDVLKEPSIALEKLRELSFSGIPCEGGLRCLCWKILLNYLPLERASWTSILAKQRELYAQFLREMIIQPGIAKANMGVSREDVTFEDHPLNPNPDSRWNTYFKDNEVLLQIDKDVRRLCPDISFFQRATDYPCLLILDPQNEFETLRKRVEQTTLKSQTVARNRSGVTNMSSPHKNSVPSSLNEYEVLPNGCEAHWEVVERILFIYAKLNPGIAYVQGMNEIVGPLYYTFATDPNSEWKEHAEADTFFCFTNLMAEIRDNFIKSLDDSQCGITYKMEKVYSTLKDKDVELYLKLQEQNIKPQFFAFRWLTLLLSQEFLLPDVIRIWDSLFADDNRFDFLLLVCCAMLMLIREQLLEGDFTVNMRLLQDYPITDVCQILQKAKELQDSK
UniProt Q86TI0: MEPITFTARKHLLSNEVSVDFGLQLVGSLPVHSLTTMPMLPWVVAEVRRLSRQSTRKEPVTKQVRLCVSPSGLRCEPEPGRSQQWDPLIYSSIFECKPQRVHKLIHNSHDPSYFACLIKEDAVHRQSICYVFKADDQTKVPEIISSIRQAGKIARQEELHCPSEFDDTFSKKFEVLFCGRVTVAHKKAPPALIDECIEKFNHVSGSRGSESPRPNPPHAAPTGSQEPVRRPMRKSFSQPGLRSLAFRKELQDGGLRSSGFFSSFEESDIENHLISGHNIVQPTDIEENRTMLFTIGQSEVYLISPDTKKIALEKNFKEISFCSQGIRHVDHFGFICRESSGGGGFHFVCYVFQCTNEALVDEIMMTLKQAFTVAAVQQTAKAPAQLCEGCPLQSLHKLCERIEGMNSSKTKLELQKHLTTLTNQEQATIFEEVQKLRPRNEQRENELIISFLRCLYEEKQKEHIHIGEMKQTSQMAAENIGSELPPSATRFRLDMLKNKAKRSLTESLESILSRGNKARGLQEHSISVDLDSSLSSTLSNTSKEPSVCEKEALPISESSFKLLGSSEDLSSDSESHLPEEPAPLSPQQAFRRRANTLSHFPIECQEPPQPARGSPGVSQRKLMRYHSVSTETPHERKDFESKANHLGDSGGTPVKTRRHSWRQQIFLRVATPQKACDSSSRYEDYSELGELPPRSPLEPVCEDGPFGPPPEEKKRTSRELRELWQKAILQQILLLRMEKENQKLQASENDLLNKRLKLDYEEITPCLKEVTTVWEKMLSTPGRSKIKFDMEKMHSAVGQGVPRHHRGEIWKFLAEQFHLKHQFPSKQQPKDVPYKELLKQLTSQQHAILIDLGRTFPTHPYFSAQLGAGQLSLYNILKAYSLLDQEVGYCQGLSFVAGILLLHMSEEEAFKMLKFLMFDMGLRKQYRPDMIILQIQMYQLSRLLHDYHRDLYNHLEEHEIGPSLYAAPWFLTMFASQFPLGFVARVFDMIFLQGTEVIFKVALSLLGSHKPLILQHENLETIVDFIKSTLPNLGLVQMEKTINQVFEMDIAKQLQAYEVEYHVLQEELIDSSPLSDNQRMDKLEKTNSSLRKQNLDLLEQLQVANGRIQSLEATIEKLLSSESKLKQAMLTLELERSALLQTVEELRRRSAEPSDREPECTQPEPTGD
UniProt Q9Y4P3: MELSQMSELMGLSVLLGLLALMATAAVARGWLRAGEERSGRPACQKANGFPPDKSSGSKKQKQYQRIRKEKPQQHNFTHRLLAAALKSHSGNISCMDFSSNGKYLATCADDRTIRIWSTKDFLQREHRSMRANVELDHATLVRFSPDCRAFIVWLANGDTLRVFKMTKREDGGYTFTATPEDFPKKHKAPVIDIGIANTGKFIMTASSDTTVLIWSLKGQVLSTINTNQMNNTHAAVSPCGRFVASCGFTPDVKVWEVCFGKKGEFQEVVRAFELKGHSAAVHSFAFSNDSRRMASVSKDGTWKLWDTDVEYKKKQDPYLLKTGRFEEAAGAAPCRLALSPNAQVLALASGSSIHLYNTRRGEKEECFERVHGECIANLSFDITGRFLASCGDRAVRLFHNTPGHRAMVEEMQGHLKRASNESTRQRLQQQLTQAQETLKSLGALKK
UniProt Q15813: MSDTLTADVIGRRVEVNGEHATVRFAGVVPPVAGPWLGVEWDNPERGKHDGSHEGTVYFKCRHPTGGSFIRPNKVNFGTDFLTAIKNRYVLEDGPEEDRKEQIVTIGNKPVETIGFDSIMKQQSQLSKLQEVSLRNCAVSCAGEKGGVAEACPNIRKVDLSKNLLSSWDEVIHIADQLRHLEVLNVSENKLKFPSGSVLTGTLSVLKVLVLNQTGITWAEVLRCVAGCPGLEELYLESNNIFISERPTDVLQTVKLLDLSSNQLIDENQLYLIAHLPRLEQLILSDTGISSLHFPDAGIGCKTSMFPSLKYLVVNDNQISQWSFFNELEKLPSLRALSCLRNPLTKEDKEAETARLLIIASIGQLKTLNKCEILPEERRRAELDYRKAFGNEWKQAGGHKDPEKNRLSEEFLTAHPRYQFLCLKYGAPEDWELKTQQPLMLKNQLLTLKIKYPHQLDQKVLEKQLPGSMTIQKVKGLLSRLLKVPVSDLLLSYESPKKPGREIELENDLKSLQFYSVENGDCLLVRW
UniProt Q12788: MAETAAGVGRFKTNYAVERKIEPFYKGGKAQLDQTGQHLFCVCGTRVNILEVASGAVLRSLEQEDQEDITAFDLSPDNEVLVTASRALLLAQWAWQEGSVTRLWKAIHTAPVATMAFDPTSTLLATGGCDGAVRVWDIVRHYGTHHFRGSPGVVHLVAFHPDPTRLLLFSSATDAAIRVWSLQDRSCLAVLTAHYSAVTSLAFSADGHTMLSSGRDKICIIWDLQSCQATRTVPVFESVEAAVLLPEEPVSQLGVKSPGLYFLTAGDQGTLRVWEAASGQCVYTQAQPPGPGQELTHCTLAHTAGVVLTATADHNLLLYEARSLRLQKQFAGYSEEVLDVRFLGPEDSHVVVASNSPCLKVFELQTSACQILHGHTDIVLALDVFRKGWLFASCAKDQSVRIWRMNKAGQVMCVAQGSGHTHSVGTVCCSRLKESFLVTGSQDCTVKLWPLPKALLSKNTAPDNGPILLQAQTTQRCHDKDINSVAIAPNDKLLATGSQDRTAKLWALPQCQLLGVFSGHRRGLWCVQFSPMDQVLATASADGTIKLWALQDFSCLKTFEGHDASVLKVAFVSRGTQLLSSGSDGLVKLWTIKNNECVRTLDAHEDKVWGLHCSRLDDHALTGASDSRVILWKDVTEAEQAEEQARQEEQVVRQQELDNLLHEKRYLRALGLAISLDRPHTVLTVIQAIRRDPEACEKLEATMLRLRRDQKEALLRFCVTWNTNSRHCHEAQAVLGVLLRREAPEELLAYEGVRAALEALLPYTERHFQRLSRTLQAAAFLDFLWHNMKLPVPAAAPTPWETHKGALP
UniProt A2RTX5: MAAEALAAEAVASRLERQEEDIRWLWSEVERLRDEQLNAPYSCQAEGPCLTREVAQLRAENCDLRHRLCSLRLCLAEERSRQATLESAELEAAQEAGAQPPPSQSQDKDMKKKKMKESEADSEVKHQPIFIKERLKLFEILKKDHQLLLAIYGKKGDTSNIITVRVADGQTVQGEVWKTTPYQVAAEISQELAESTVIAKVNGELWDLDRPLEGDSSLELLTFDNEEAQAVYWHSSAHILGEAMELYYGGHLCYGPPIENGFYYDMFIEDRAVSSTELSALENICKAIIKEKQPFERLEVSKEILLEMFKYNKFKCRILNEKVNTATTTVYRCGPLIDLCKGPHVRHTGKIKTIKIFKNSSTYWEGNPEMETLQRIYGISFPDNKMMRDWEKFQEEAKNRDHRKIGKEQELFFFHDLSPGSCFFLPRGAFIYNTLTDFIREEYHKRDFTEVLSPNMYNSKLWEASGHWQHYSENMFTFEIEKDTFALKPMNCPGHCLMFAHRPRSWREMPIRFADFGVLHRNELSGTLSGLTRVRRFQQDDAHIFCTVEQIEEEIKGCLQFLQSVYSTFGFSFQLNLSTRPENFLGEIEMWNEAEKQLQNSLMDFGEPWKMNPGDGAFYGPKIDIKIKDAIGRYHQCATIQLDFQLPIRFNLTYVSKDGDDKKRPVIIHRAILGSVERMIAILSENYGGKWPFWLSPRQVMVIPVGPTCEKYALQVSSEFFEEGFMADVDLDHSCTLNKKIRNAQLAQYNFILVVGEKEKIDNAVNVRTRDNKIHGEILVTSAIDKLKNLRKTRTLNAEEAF
UniProt P37802: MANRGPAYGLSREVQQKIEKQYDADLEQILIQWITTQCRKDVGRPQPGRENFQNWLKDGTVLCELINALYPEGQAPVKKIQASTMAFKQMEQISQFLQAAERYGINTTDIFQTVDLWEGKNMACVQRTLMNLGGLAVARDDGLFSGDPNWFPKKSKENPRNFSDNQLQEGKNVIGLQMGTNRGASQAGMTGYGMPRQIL
UniProt P20226, whole entry, looked up: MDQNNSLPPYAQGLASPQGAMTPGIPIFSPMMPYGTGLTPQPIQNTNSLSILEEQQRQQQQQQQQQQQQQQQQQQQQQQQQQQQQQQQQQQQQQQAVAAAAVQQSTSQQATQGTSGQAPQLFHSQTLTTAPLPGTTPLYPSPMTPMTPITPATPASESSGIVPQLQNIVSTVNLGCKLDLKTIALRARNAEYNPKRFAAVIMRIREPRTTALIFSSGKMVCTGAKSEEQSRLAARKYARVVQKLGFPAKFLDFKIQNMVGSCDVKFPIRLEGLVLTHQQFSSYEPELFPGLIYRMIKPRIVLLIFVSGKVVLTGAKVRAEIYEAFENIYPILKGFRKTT
UniProt Q9C0D5: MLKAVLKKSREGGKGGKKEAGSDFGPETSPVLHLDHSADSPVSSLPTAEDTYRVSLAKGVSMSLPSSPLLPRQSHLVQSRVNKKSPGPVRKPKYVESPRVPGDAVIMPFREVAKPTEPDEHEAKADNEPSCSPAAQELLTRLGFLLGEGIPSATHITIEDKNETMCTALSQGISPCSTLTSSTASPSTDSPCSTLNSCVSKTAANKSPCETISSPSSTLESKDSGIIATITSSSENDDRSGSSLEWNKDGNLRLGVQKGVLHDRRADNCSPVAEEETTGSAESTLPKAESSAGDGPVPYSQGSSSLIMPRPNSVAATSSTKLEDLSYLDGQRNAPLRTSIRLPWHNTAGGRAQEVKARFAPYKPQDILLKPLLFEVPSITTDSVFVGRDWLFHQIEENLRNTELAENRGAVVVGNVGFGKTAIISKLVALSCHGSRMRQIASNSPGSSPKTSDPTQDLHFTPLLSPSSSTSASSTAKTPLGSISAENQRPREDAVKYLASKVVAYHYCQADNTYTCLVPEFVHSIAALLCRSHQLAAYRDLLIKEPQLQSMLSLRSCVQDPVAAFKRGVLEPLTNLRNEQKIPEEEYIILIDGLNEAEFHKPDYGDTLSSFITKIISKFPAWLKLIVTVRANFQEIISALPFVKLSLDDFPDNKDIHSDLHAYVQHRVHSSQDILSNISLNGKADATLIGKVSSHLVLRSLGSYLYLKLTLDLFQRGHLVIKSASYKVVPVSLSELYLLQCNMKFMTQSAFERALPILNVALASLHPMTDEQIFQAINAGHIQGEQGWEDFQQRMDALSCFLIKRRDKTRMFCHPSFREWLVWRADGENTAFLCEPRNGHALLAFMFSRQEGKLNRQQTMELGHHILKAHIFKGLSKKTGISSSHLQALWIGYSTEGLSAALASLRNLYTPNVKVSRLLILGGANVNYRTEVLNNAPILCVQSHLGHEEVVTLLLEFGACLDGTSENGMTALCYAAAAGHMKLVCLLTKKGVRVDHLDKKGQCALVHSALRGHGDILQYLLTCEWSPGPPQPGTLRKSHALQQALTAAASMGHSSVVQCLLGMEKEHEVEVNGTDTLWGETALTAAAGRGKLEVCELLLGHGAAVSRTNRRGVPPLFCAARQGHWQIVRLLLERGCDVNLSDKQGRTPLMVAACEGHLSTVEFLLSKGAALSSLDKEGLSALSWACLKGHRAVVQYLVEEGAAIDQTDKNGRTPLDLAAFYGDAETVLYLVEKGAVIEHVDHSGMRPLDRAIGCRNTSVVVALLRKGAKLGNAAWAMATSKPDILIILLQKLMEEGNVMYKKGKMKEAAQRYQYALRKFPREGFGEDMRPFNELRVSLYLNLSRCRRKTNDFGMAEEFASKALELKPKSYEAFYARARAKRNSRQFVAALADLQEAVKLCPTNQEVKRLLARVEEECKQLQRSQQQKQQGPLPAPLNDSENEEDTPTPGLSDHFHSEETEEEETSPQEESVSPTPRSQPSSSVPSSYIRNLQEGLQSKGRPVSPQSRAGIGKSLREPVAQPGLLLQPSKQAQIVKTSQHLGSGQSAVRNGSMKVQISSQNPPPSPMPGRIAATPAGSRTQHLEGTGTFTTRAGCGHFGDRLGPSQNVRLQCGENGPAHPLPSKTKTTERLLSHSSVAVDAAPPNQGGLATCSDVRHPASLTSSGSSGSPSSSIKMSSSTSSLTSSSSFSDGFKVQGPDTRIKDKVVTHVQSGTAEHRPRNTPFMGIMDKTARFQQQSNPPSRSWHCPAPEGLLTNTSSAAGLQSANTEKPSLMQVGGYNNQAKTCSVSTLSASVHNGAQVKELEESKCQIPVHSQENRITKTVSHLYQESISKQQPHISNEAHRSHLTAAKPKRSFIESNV

Compound: Cc1cc(ccc1-c1ccccc1)C(=O)N1CCCN(CC1)C(=O)CCl [compound 10]
Assay: probe-labelled cysteine peptide fold change vs DMSO (competition) (log2 fold change); higher = less target engagement (more negative = stronger competition)
Settings: THP-1, incubation time: 4 h
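Note: competitive profiling in live THP-1 cells: cysteine peptides tagged with an iodoacetamide desthiobiotin (IA-DTB) probe, intensity after compound treatment relative to DMSO-treated cells.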

Target | probe-labelled cysteine peptide fold change (10 µM) | probe-labelled cysteine peptide fold change (50 µM)
TBC1D13_Q9NVG8_145_ATDYPCLLILDPQNEFETLR (UniProt Q9NVG8) | -0.0238 | 0.373
TBC1D1_Q86TI0_604_RANTLSHFPIECQEPPQPAR (UniProt Q86TI0) | -0.243 | -0.382
TBC1D1_Q86TI0_454_CLYEEK (UniProt Q86TI0) | -0.141 | -0.399
SYMPK_Q92797_848_GMGMNSPELLLLVENCPK (UniProt Q92797) | 0.311 | -0.0735
TBL2_Q9Y4P3_240_GQVLSTINTNQMNNTHAAVSPCGR (UniProt Q9Y4P3) | -0.0462 | 0.0804
TARDBP_Q13148_39_VTEDENDEPIEIPSEDDGTVLLSTVTAQFPGACGLR (UniProt Q13148) | 0.0296 | 0.118
TARS_P26639_254+261_CGPLIDLCR (UniProt P26639) | -0.119 | -0.181
TBC1D1_Q86TI0_766_LDYEEITPCLK (UniProt Q86TI0) | -0.284 | 0.103
TBK1_Q9UHD2_292_CWGFDQFFAETSDILHR (UniProt Q9UHD2) | -0.075 | 0.189
TBCE_Q15813_152_GGVAEACPNIR (UniProt Q15813) | -0.0462 | 0.118
TAF4_O00268_1022_KVDCPGPGSGAEGSGPGSVVPGSSGVGTPR (UniProt O00268) | -0.0723 | -0.344
TBL3_Q12788_413_AGQVMCVAQGSGHTHSVGTVCCSR (UniProt Q12788) | 0.169 | 0.277
TCIRG1_Q13488_238+241_KITDCFHCHVFPFLQQEEAR (UniProt Q13488) | -0.0689 | -0.136
TARSL2_A2RTX5_422_EQELFFFHDLSPGSCFFLPR (UniProt A2RTX5) | -0.1 | -0.0948
TACC3_Q9Y6A5_20_NTENCDFLFSPPEVTGR (UniProt Q9Y6A5) | 0.0968 | 0.244
TBC1D13_Q9NVG8_387_LLQDYPITDVCQILQK (UniProt Q9NVG8) | -0.0681 | -0.374
TATDN2_Q93075_563_EDLVWGAFGCHPHFAR (UniProt Q93075) | -0.00416 | -0.32
TACC3_Q9Y6A5_236_AETPHGAEEECR (UniProt Q9Y6A5) | 0.141 | 0.144

Target | probe-labelled cysteine peptide fold change (10 µM) | probe-labelled cysteine peptide fold change (50 µM)
TAGLN2_P37802_63_DGTVLCELINALYPEGQAPVK (UniProt P37802) | 0.24 | 0.191
TACC1_O75410_482_KHETQSLALDACSR (UniProt O75410) | -0.349 | -0.296
TBP_P20226_221_MVCTGAK (UniProt P20226) | -0.146 | -0.0931
TANC1_Q9C0D5_1808_CQIPVHSQENR (UniProt Q9C0D5) | -0.0397 | 0.45
TANC1_Q9C0D5_800_MDALSCFLIK (UniProt Q9C0D5) | -0.167 | -1.29
TCEA2_Q15560_163_EMLTAALQTDHDHVAIGADCER (UniProt Q15560) | 0.0225 | -0.12
TARSL2_A2RTX5_546_FQQDDAHIFCTVEQIEEEIK (UniProt A2RTX5) | 0.838 | 0.796
TBL3_Q12788_728_HCHEAQAVLGVLLRR (UniProt Q12788) | -0.0536 | -0.526
TAF2_Q6P1X5_701_MSACFCLAK (UniProt Q6P1X5) | -0.0214 | 0.0218
TBCE_Q15813_371_CEILPEER (UniProt Q15813) | -0.191 | -0.4
TBCE_Q15813_301_LEQLILSDTGISSLHFPDAGIGCK (UniProt Q15813) | 0.043 | -0.11
TCEA1_P23193_212_NVLCGNIPPDLFAR (UniProt P23193) | 0.332 | 0.133
TARDBP_Q13148_50_YRNPVSQCMR (UniProt Q13148) | -0.0323 | -0.0275
TAF1C_Q15572_162_LLQDLGGHQPWGCPWAYLSNR (UniProt Q15572) | -0.035 | -0.311
TBCD_Q9BTW9_1055_TLDHVLTHGCFDIFTTEEDHPFAVK (UniProt Q9BTW9) | -0.188 | -0.0289
TBC1D1_Q86TI0_178_KFEVLFCGR (UniProt Q86TI0) | -0.0608 | -0.0516
TBL2_Q9Y4P3_259_VWEVCFGK (UniProt Q9Y4P3) | 0.063 | 0.174
TBL3_Q12788_696_DPEACEK (UniProt Q12788) | -0.21 | -0.486
